# Source: PubChem BioAssay AID1347075 (National Center for Advancing Translational Sciences (NCATS), 2019)
# Hit rate of the full screen: of about 400,000 compounds, about 5,500 (1.4%) were called active. The shares of active, inactive and inconclusive entries below differ from those in the screen. Calls follow the shape of the dose curve; as a rule, active = well fitted cell-killing curve with a large enough effect; inconclusive = small, poorly fitted or top-dose-only effect, or effect the other way; inactive = flat fitted curve, though single readings scatter. A potency beside an inconclusive call is a rough fit, not a confirmed value. More than one record can exist for a structure, and the calls need not agree.
# Assay: qHTS assay for MDR1-selective chemotherapeutics: Primary screen using the parental adenocarcinoma cell KB-3-1; also: nearly all actives have a fitted effect of over 60% in size
# Conditions: KB-3-1 viability, CellTiter-Glo ATP luminescence, 72 h; activity change, negative = cytotoxic: at 46.1 µM (top of the series)
# Outline: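 Cytotoxicity measured as CellTiter-Glo luminescence after 72 h at 37 C. Compound titrations were pinned onto drug-naive KB-3-1 parental adenocarcinoma cells grown in DMEM with 10% FBS, and normalized data fitted to concentration-response curves.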
# % is scaled to controls: 0 for no effect and ±100 for the full control effect; potency is read from the fitted curve at half-maximal effect.
Compound,Potency,"activity change, negative = cytotoxic"
COc1ccc2c(=O)c(-c3ccccc3C)c(C)oc2c1,inactive,
CC(C)C[C@H]1CNC(=S)N1CC1CCCN1C[C@H](CC(C)C)N1C[C@H](Cc2ccc(O)cc2)N(CC2CCCCCC2)C1=S (some centres not stated),"inconclusive: 29.1 µM [cytotoxic, single point]",
Cc1oc(-c2ccccc2F)nc1CS(=O)CC(=O)NCc1ccc2c(c1)OCO2 (configuration not stated),"inconclusive: 7.31 µM [cytotoxic, partial curve]",
CCCNC(=O)C1(C)CCCN(Cc2csc3ccccc23)C1 (configuration not stated),,inconclusive: -31.8%
Cn1cnc([N+](=O)[O-])c1Sc1ncnc2nc[nH]c12,active: 1.84 µM,
CCN(c1ccccc1)S(=O)(=O)c1ccc(Cl)c(NC(=O)COC(=O)c2ccc(O)cc2)c1,inactive,
Cc1ccc(OCc2nc(-c3ccccn3)n[nH]2)cc1,"inconclusive: 29.1 µM [cytotoxic, single point]",
CC(C)c1ccc(CNC(=O)C2(C)CCCN2C)cc1 (configuration not stated),inactive,
COc1cc(NC(=O)N2CCNC2=O)cc(C(=O)Nc2cccc(C(F)(F)F)c2)c1,active: 10.3 µM,
CCOc1cccnc1Sc1ccccc1,"inconclusive: 1.46 µM [cytotoxic, full curve, poor fit]",
Nc1c(N(C(=O)Nc2ccc(Cl)c(Cl)c2)C2CCCC2)c(=O)[nH]c(=O)n1Cc1ccccc1,"inconclusive: 18.4 µM [cytotoxic, single point]",
Nc1cc(Cl)cc2c1-c1ccc(Cl)cc1C2,"inconclusive: 18.4 µM [cytotoxic, single point]",
CCN(c1ccccc1)S(=O)(=O)c1ccc(OC)c(NC(=O)CNC)c1,"inconclusive: 20.6 µM [cytotoxic, single point]",
O=C(Nc1nn(Cc2ccc(Cl)cc2)cc1Br)c1ccc(COc2ccccc2Cl)o1,"inconclusive: 18.4 µM [cytotoxic, single point]",
COCCn1c(=S)[nH]c2cc(C(=O)N3CCN(Cc4ccc5c(c4)OCO5)CC3)ccc2c1=O,active: 4.11 µM,
Cc1ccc(CNC(=O)CS(=O)(=O)c2cccc3nsnc23)cc1,"inconclusive: 29.1 µM [cytotoxic, single point]",
CCOc1ccc(-n2nc3ccc(N)cc3n2)cc1,inactive,
C=CCOc1cccc(C(=O)/C=C2/C(=O)Nc3ccccc32)c1,"inconclusive: 20.6 µM [cytotoxic, single point]",
COc1ccc(Cn2cc3c(-c4ccc(F)cc4)nnc-3c3cc(OC)c(OC)cc32)cc1,"inconclusive: 29.1 µM [cytotoxic, single point]",
CC(=O)Nc1cccc(-c2ccnc3c2CC(C(=O)NCc2ccncc2)O3)c1 (configuration not stated),"inconclusive: 29.1 µM [cytotoxic, single point]",
Cc1cc(C)cc(NC(=O)CC23CC4CC(C2)CC(n2nnc(C)n2)(C4)C3)c1,inactive,
CC(C)C(C(=O)NC1CCCC1)N1CCN(c2ncccc2C#N)CC1 (configuration not stated),inactive,
COc1ccc(CN(C)C(=O)C23CC4CC(CC(Cl)(C4)C2)C3)c(OC)c1OC,inactive,
COCCCNC(=O)c1sc2ncnc(N3CCc4ccccc4C3)c2c1C,"inconclusive: 29.1 µM [cytotoxic, single point]",

# Pulled by compound from the entries so far:
Compound,Potency,"activity change, negative = cytotoxic"
C=CCOc1cccc(C(=O)/C=C2/C(=O)Nc3ccccc32)c1,"inconclusive: 20.6 µM [cytotoxic, single point]",
COCCn1c(=S)[nH]c2cc(C(=O)N3CCN(Cc4ccc5c(c4)OCO5)CC3)ccc2c1=O,active: 4.11 µM,
COc1ccc(CN(C)C(=O)C23CC4CC(CC(Cl)(C4)C2)C3)c(OC)c1OC,inactive,
CCCNC(=O)C1(C)CCCN(Cc2csc3ccccc23)C1 (configuration not stated),,inconclusive: -31.8%

# Additional results

Compound,Potency,"activity change, negative = cytotoxic"
O=C(Cc1ccc(Cl)cc1)Nc1cccc(S(=O)(=O)N2CCCCC2)c1,"inconclusive: 18.4 µM [cytotoxic, single point]",
COc1ccc(CN2C(=O)CNC2=S)cc1,"inconclusive: 0.092 µM [rising, full curve]",
O=C(COc1ccccc1)NCC(=O)N/N=C/c1ccc(O)cc1O,"inconclusive: 8.2 µM [cytotoxic, partial curve, poor fit]",
CCCCCCCCCCCCCCCC[n+]1cccc(C(=O)N(CC)CC)c1,active: 13 µM,
CCNC(=S)NNC(=O)c1csc(CC)c1,"inconclusive: 25.9 µM [cytotoxic, single point]",
Cc1cc(C(C)(C)C)ccc1OCC(=O)N/N=C\c1c(C)n(C)n(-c2ccccc2)c1=O,"inconclusive: 9.2 µM [rising, partial curve, poor fit]",
Cc1ccc(N=c2c([N+](=O)[O-])nn(-c3ccccc3)n2O)c(C)c1,"inconclusive: 25.1 µM [cytotoxic, single point]",
Cc1ccccc1Oc1nnc(-c2cccs2)c2ccccc12,inactive,
CC(C)P(=O)(c1cccc(C(=O)O)c1)C(C)C,inactive,
C(=C\c1ccccc1)/CSc1nnc(-c2ccccn2)n1Cc1ccco1,active: 5.8 µM,
CN(c1ccccc1)S(=O)(=O)c1cccc(NC(=O)c2cccc(C#N)c2)c1,"inconclusive: 18.4 µM [cytotoxic, single point]",
Cc1cc(NC(=O)c2ccc(COc3ccccc3Cl)o2)no1,,inconclusive: -6.87%
O/N=C/c1ccc(OCc2ccccc2F)c(Cl)c1,"inconclusive: 20.6 µM [cytotoxic, partial curve, poor fit]",
CCN1CCCC1CNC(=O)c1cc2c(C)nc3ccccc3c2o1 (configuration not stated),inactive,
COc1ccc(C(=O)Nc2cc3c(cc2N2CCCCC2)n(C)c(=O)n3C)cc1OC,inactive,
O=C(Cc1ccccc1)NNC(=S)NC(=O)c1cccs1,"inconclusive: 29.1 µM [cytotoxic, single point]",
CCOc1ccc(NC(=O)C2CCN(S(=O)(=O)c3cccs3)CC2)cc1,"inconclusive: 29.1 µM [cytotoxic, single point]",
O=S(=O)(NCc1c(Cl)cccc1Oc1ccccc1)c1ccc(F)cc1,active: 16.4 µM,
O=C(/C=C/c1c(Cl)cccc1Cl)n1cccn1,,inconclusive: -23.1%
Cc1[nH]nc2c1C(C1CC=CCC1)C(C#N)=C(N)O2 (configuration not stated),"inconclusive: 29.1 µM [cytotoxic, single point]",
Cc1ccc(C(=O)CSc2nnc(C3CC3)n2C2CC2)s1,"inconclusive: 25.9 µM [rising, single point]",
CCOC(=O)c1ccc(N2C(=O)c3n[nH]c(-c4ccco4)c3C2c2cccc(OC)c2)cc1 (configuration not stated),"inconclusive: 29.1 µM [cytotoxic, single point]",
COCCCNC(=O)c1ccc(-c2nc(CS(=O)(=O)c3ccc(C)cc3)c(C)o2)cc1,"inconclusive: 29.1 µM [cytotoxic, single point]",
